This is one part of the list. Most entries show no effect beyond the scatter of the controls.
compound: CN[C@@H]1C[C@H]2O[C@@](C)([C@@H]1OC)n1c3ccccc3c3c4c(c5c6ccccc6n2c5c31)C(=O)NC4 [staurosporine]; experiment: log2 fold change of tryptic peptide abundance, ligand vs vehicle (limited proteolysis) (log2 ratio); higher = more trypsin-susceptible (destabilized); details: ligand concentration: 20 uM; sample: mouse liver crude lysate; replicate design: treated separately

The chains behind the UniProt entries cited, without tags or fusion partners. Where a name states a change or a piece, a line headed by the entry shows the natural chain unless it says otherwise.
UniProt Q5DTM8, whole entry: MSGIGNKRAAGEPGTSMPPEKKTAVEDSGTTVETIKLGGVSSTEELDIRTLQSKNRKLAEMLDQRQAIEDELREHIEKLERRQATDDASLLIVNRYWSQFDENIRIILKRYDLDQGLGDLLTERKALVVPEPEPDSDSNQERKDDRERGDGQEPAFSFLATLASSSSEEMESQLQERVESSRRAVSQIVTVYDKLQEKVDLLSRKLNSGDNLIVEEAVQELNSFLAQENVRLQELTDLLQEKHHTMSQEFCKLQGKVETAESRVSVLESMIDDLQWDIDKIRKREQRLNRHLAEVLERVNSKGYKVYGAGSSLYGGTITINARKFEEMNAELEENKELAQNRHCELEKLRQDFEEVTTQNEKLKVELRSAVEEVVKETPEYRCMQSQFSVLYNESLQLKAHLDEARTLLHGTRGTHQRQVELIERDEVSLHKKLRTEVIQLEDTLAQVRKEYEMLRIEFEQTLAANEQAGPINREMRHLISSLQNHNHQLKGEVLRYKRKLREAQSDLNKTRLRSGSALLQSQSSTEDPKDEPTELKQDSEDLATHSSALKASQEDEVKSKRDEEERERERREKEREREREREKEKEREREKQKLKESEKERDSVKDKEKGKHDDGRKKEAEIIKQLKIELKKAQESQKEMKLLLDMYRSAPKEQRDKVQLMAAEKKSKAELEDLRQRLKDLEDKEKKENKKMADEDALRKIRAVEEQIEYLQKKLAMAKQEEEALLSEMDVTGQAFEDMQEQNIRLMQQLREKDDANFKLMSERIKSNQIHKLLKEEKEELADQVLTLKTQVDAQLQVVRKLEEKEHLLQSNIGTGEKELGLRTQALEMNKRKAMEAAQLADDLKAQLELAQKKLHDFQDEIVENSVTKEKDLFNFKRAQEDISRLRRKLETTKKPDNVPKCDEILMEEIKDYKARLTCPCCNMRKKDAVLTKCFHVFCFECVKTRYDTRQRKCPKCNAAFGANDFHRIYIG
UniProt Q3UNX5: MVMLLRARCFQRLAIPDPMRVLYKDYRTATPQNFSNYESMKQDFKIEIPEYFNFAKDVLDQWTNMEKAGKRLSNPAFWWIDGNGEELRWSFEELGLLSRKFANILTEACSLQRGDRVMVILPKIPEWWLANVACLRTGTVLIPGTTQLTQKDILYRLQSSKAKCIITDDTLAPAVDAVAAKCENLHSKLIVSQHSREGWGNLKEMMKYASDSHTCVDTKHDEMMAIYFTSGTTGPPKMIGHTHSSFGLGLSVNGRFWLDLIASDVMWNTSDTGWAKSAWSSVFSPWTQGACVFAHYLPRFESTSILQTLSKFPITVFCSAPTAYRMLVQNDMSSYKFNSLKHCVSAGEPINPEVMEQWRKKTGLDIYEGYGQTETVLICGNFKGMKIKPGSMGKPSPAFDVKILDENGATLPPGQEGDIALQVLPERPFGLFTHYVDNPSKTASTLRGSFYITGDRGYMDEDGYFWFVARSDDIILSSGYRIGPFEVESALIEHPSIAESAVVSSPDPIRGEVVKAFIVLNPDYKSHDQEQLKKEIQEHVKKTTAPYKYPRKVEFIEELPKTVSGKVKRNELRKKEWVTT
UniProt Q569Z6: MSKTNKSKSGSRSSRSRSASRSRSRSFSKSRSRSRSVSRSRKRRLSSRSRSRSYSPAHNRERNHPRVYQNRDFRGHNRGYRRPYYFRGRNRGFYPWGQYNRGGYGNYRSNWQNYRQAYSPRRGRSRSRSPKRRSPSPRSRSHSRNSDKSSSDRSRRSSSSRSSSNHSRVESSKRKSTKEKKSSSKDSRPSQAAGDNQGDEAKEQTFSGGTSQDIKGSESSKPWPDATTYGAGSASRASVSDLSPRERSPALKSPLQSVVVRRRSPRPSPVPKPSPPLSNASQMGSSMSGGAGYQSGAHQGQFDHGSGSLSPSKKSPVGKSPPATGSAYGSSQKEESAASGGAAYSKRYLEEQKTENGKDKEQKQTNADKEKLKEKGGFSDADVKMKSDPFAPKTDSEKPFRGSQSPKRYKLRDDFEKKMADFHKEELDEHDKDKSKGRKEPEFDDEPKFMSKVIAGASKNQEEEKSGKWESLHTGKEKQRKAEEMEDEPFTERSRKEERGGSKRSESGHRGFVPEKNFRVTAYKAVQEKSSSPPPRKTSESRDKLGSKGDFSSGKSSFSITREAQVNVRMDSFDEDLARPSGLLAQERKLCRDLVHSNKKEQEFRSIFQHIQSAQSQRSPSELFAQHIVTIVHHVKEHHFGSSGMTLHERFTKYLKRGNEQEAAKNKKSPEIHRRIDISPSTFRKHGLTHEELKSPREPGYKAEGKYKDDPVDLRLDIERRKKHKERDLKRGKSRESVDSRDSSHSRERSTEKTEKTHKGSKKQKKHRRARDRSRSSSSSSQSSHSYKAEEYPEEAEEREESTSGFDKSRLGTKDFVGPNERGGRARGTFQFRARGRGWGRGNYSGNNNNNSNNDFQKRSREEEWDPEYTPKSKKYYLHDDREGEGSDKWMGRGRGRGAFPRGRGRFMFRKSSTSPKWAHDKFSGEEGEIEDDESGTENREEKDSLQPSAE
UniProt Q3U7U3: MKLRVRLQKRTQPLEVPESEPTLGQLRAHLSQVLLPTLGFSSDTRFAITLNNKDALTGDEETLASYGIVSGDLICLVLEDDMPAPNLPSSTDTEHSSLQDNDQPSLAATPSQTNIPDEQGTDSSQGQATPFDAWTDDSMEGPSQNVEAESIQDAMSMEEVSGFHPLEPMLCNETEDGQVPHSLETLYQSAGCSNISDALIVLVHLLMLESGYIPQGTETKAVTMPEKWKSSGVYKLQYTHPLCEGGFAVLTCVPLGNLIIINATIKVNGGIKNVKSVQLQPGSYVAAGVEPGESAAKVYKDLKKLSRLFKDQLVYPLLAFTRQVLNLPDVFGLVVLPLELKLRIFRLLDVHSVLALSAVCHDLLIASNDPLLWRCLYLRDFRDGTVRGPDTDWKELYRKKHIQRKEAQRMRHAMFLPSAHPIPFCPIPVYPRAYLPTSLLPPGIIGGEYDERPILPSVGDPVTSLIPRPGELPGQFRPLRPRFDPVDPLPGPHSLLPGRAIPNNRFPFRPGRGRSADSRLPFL
UniProt Q59J78: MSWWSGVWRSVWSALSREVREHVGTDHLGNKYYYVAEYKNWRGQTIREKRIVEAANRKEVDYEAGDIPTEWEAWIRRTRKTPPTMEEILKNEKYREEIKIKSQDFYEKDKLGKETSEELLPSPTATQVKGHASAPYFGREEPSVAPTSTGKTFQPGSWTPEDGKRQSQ
UniProt Q4VAE3: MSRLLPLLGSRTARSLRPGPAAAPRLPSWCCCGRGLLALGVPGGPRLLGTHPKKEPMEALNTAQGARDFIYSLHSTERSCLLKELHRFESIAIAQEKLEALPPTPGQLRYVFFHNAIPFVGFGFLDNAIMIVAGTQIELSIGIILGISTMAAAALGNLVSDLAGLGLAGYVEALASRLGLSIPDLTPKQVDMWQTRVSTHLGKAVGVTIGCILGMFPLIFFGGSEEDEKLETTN
UniProt Q3UUI3: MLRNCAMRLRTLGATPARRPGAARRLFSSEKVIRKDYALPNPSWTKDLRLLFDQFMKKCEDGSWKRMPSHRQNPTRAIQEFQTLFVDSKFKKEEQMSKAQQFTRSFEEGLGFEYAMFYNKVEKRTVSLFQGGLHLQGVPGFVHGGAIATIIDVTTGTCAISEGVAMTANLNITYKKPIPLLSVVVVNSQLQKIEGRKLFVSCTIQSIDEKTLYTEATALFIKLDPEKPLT
UniProt Q497H0: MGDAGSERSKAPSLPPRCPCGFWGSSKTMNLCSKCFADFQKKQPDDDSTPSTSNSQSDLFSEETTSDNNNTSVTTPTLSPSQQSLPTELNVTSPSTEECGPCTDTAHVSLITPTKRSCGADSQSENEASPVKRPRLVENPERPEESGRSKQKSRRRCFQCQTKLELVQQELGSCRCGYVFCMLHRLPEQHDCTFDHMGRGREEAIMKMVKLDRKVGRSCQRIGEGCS
UniProt Q4VBD9: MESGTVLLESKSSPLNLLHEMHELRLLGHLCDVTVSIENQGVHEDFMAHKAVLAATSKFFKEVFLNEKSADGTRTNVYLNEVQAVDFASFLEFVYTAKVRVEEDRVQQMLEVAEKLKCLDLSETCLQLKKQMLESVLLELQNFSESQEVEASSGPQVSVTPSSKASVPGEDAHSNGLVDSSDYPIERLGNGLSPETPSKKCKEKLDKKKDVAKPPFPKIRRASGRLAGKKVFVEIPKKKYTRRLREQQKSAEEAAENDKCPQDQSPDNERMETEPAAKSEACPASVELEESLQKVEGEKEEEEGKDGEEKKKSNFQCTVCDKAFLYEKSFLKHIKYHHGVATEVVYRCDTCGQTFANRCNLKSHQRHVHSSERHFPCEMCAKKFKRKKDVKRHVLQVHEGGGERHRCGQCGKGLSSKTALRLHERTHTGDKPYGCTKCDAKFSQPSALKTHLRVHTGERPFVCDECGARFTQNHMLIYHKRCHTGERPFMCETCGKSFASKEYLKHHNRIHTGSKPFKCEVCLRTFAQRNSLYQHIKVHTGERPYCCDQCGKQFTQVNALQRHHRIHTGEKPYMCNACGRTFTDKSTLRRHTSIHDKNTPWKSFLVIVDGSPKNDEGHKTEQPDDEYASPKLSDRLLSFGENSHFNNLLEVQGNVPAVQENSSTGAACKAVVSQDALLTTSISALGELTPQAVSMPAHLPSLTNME
UniProt Q3UYV9: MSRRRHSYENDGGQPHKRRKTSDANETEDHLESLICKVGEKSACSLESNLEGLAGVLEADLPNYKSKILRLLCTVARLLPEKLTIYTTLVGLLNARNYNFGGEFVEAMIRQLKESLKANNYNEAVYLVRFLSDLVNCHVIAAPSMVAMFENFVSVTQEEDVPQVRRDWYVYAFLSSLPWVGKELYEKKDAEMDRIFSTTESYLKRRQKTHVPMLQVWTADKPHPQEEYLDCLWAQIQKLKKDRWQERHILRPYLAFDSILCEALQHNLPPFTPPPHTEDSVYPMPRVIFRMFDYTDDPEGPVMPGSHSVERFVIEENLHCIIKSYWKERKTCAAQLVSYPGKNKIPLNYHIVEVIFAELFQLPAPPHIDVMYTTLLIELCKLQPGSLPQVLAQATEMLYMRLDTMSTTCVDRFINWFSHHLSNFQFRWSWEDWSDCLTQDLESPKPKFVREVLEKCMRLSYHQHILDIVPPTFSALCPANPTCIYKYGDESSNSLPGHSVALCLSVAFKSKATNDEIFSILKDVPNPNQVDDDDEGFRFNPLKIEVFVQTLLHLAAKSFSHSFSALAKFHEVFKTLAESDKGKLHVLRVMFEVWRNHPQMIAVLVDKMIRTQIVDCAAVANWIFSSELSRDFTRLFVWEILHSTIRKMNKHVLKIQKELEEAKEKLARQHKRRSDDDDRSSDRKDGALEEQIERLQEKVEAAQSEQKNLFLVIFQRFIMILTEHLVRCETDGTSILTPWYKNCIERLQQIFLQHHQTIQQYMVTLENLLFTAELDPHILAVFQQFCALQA
UniProt Q3UV55: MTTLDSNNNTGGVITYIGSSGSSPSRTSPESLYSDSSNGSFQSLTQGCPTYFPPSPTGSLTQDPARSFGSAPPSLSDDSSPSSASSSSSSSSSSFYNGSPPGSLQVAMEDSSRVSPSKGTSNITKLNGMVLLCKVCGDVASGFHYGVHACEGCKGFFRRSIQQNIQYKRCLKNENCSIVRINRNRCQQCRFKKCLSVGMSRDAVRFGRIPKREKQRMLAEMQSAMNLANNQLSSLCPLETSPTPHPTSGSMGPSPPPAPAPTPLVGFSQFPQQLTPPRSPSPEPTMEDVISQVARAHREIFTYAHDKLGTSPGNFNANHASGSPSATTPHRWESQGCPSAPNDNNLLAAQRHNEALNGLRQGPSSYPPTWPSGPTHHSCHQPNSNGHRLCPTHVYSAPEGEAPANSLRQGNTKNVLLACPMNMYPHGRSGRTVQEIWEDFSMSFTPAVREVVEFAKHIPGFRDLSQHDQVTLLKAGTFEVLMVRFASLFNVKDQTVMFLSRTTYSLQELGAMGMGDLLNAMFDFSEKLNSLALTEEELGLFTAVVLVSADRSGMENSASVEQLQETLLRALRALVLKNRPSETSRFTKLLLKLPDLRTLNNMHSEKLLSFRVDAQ
UniProt Q3U6U5: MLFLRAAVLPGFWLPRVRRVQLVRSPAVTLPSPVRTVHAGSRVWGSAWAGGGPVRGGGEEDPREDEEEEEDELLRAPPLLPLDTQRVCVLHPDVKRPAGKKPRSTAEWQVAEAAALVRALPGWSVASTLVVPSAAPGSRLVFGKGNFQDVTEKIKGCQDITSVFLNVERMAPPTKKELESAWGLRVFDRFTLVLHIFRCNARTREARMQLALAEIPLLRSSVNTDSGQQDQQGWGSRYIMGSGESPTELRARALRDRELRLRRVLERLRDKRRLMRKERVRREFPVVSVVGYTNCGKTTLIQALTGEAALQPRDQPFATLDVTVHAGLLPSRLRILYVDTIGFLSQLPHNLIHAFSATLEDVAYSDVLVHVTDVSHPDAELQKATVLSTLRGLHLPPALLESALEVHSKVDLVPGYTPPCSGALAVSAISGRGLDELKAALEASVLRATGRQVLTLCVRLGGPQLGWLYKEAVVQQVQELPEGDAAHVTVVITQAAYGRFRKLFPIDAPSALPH

Row | Target | log2 fold change
1 | UniProt Q3UDR8 (peptide sequence: QVADQMWQAGKR, peptide start residue: 89) | -0.0549
2 | UniProt Q5DTM8 (peptide sequence: CDEILMEEIK, peptide start residue: 903) | 0.468
3 | UniProt Q3UNX5 (peptide sequence: GSFYITGDR, peptide start residue: 448) | 0.184
4 | UniProt Q5DU25 (peptide sequence: DVAQCHLHHENPALGR, peptide start residue: 153) | 0.207
5 | UniProt Q569Z6 (peptide sequence: TDSEKPFR, peptide start residue: 394) | -0.156
6 | UniProt Q3U7U3 (peptide sequence: FDPVDPLPGPHSLLPGR, peptide start residue: 483) | 0.0775
7 | UniProt Q59J78 (peptide sequence: SQDFYEK, peptide start residue: 102) | 0.472
8 | UniProt Q4VAE3 (peptide sequence: ELHRFESIAIAQEK, peptide start residue: 84) | -0.053
9 | UniProt Q3UUI3 (peptide sequence: KCEDGSWK, peptide start residue: 58) | -0.478
10 | UniProt Q3UMC0 (peptide sequence: GVLLYGPPGCSK, peptide start residue: 663) | -0.306
11 | UniProt Q497H0 (peptide sequence: LVENPERPEESGR, peptide start residue: 136) | 0.233
12 | UniProt Q4VBD9 (peptide sequence: HVLQVHEGGGER, peptide start residue: 393) | 1.1
13 | UniProt Q3UYV9 (peptide sequence: ATNDEIFSILK, peptide start residue: 512) | 0.285
14 | UniProt Q3UV55 (peptide sequence: NVLLACPMNMYPHGR, peptide start residue: 414) | 0.181
15 | UniProt Q3U6U5 (peptide sequence: LGGPQLGWLYK, peptide start residue: 460) | -0.19

2 entries drawn at random from the list so far, as already listed:
Row | Target | log2 fold change
3 | UniProt Q3UNX5 (peptide sequence: GSFYITGDR, peptide start residue: 448) | 0.184
7 | UniProt Q59J78 (peptide sequence: SQDFYEK, peptide start residue: 102) | 0.472
